The target of the assay is FLAG-Fbxo7 ΔF-box (human) (UniProt Q9Y3I1). Kind of assay: co-IP.

Sequences of proteins named here, by UniProt entry; tags and fusion partners are left off. A change or cut given only in a name is not applied to a line headed by its entry.
UniProt Q9Y3I1: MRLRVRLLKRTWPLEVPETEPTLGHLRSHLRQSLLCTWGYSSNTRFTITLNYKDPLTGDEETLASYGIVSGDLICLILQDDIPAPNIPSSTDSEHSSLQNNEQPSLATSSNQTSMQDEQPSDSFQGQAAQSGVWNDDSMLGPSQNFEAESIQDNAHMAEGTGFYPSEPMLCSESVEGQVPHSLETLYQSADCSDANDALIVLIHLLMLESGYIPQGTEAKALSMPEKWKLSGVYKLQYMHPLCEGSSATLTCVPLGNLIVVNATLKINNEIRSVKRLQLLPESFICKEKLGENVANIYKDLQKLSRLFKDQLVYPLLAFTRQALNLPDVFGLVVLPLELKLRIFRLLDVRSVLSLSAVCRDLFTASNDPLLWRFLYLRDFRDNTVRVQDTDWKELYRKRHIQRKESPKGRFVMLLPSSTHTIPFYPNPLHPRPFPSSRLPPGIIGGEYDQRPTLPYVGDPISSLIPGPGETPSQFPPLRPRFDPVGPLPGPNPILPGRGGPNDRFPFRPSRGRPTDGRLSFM
UniProt Q9NQG6: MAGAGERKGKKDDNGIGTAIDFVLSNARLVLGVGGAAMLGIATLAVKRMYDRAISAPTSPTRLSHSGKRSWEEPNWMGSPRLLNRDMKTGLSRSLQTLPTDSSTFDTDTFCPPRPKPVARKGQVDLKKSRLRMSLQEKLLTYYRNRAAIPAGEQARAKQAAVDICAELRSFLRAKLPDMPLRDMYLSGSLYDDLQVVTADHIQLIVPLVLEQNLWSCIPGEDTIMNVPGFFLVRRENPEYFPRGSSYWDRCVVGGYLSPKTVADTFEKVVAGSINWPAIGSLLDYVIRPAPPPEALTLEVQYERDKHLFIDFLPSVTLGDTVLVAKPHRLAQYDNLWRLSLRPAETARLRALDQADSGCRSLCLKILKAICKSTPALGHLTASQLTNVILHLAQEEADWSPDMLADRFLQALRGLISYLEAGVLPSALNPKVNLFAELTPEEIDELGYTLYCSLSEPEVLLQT

Results are given in words; binding and its absence hold for the method and conditions named. Binding seen in cells or lysates may run through a third protein. A result given as binding can be weak or reduced; the word gives no strength. Tags and fused reporters may be left off the sequences shown.

In the case of MiD51-Myc (from UniProt Q9NQG6 1-463), the binding entry is reported as “binds”.

B1: MiD49-Myc (protein, UniProt Q96C03 1-454)
chain: MAEFSQKRGKRRSDEGLGSMVDFLLANARLVLGVGGAAVLGIATLAVKRFIDRATSPRDEDDTKADSWKELSLLKATPHLQPRPPPAALSQPVLPLAPSSSAPEGPAETDPEVTPQLSSPAPLCLTLQERLLAFERDRVTIPAAQVALAKQLAGDIALELQAYFRSKFPELPFGAFVPGGPLYDGLQAGAADHVRLLVPLVLEPGLWSLVPGVDTVARDPRCWAVRRTQLEFCPRGSSPWDRFLVGGYLSSRVLLELLRKALAASVNWPAIGSLLGCLIRPSMASEELLLEVQHERLELTVAVLVAVPGVDADDRLLLAWPLEGLAGNLWLQDLYPVEAARLRALDDHDAGTRRRLLLLLCAVCRGCSALGQLGRGHLTQVVLRLGEDNVDWTEEALGERFLQALELLIGSLEQASLPCHFNPSVNLFSSLREEEIDDIGYALYSGLQEPEGLL
For the molecule B1, the binding result is “binds”.

For the origin of these results see doi:10.1101/2021.12.22.473884.
